# Laboratory results as given in the supplement of paper PMC12889115.
# The other results are listed elsewhere or left out. Values are raw readings; no control value is given beside them.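 Primary screen: polymyxin B was added at a level permeabilizing Salmonella outer membranes while sparing inner membranes. DMSO wells, both with and without polymyxin B, established maximum growth. Plate-to-plate variation meant each plate was ranked on its own, and the lowest-OD600 compounds were selected as hits.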
# Tested on: Salmonella enterica serovar Typhimurium SL1344
# Experiment: bacterial growth OD600 after 18 h with compound and polymyxin B; higher = more bacterial growth (less inhibition)
# Details: 50 µM, Mueller-Hinton broth
SMILES,bacterial growth OD600 (polymyxin B 0.75 µg/mL),bacterial growth OD600 (polymyxin B 1 µg/mL)
COc1cccc(CCC2CCCN(C(=O)C3CCOCC3)C2)c1 (stereo unspecified),0.68,–
COc1cccc(-c2nn(-c3ccccc3)cc2CNCC2CCCO2)c1 (stereo unspecified),0.76,–
CCC(=O)N1CCCC(CCc2cccc(OC)c2)C1 (stereo unspecified),0.89,–
COCCc1nc2ccc(C(=O)NCC3(c4ccc(OC)cc4)CCCC3)cc2o1,–,0.674
C=CCNC(=O)c1coc(COc2ccc3sc(C)nc3c2)n1,–,0.921
CCC1C(=O)N(C)CCN1c1ccc(-c2nc(-c3ccccc3F)no2)cn1 (stereo unspecified),–,0.748
COCC(=O)Nc1cc(C(=O)N(C)Cc2nonc2C)cc2ncn(CCc3ccccc3)c12,0.809,–
COc1ccc(NC(=O)CCC2CCCN(C(=O)c3ccc(C(C)=O)s3)C2)cc1Cl (stereo unspecified),–,0.857
COC(=O)CCNc1ccc(-c2nc(Cc3ccc(F)cc3)no2)cn1,0.006,–
O=C(C1=CCCC1)N1CCCC(CNC(=O)C2(c3ccc(Cl)cc3)CC2)C1 (stereo unspecified),–,0.853
O=C(NCc1ccc(Cl)s1)C1CCC(=O)N(CCCN2CCOCC2)C1 (stereo unspecified),–,0.797
CCC(=O)N[C@@H]1c2ccccc2C2(CCN(Cc3c(F)ccc(F)c3F)CC2)[C@H]1OCCOC,0.722,–
CCOC(=O)C1(C/C=C/c2ccccc2)CCCN(C(=O)c2n[nH]c(=O)c3ccccc23)C1 (stereo unspecified),–,0.665
COCc1nc2cc(NC(=O)Cc3ccccc3)cc(C(=O)N(C)Cc3csc(C)n3)c2n1C,0.855,–
Cc1ccn(CCC(=O)N2CCCC(N3CCN(c4ccccc4C)CC3)C2)n1 (stereo unspecified),–,0.839
CN(C)CC(C)(O)c1ccc2c(c1)CN(C(=O)CCc1nc3cc(F)ccc3[nH]1)CCO2 (stereo unspecified),0.855,–

SMILES,bacterial growth OD600 (polymyxin B 0.75 µg/mL),bacterial growth OD600 (polymyxin B 1 µg/mL)
CC(C)(C)CN1CCC(Oc2ccc(C(=O)N3CCCC(O)C3)cc2Cl)CC1 (stereo unspecified),0.823,–
COc1ccc(CNC(=O)CCC2CCCN(Cc3cccs3)C2)c(OC)c1 (stereo unspecified),0.796,–
Cc1cccc(CN2CCC(n3nccc3NC(=O)c3ccccc3C)CC2)n1,–,0.913
O=C(NC1CCOCC1)C1CCN(c2nc(-c3ccccc3)nc3c2CCC3)CC1,0.75,–
COc1cccc(CCC2CCCN(C(=O)C3CCN(C(C)=O)CC3)C2)c1 (stereo unspecified),0.844,–
CCNC(=O)c1cn(CC(C)C)cc(C(=O)N2CCCCC2CC)c1=O (stereo unspecified),0.827,–
O=C1N(Cc2ccccc2F)CCCC1(O)CN1CCOCC1 (stereo unspecified),–,0.96
CN(Cc1nc(N2CCOCC2)c2ccc(Cl)cc2n1)Cc1ccccc1C(F)(F)F,0.602,–
C=CCC(O)(CC=C)C(C)NC(=O)CCC1(Cc2ccc(Cl)cc2)CCC(=O)N1 (stereo unspecified),0.921,–
CO[C@H]1[C@H](NC(=O)COc2ccccc2)c2ccccc2C12CCN(C(=O)C1CCCCC1)CC2,0.006,–
COc1cc2nc(-c3cc4c(c(OC)c3)OCCN(C(=O)c3cccs3)C4)cc(C)c2cc1OC,0.646,–
Cc1ncsc1CCC(=O)N1CCOC(CCCC(C)C)C1 (stereo unspecified),–,1
CCC1CCCCN1C(=O)CCC1(Cc2ccc(F)c(OC)c2)CCC(=O)N1 (stereo unspecified),0.771,–
CCOC(=O)C1(Cc2ccc(F)cc2F)CCCN(C(C)=O)C1 (stereo unspecified),–,0.834
COc1cc2nc(N(C)C)c(CNCc3cccc(Cl)c3)cc2c(OC)c1OC,0.816,–

# Rewritten with bars between the fields: 9 of the compounds above
SMILES | bacterial growth OD600 (polymyxin B 0.75 µg/mL) | bacterial growth OD600 (polymyxin B 1 µg/mL)
CN(C)CC(C)(O)c1ccc2c(c1)CN(C(=O)CCc1nc3cc(F)ccc3[nH]1)CCO2 (stereo unspecified) | 0.855 | –
CC(C)(C)CN1CCC(Oc2ccc(C(=O)N3CCCC(O)C3)cc2Cl)CC1 (stereo unspecified) | 0.823 | –
COc1ccc(CNC(=O)CCC2CCCN(Cc3cccs3)C2)c(OC)c1 (stereo unspecified) | 0.796 | –
Cc1cccc(CN2CCC(n3nccc3NC(=O)c3ccccc3C)CC2)n1 | – | 0.913
O=C(NC1CCOCC1)C1CCN(c2nc(-c3ccccc3)nc3c2CCC3)CC1 | 0.75 | –
COc1cccc(CCC2CCCN(C(=O)C3CCN(C(C)=O)CC3)C2)c1 (stereo unspecified) | 0.844 | –
CCNC(=O)c1cn(CC(C)C)cc(C(=O)N2CCCCC2CC)c1=O (stereo unspecified) | 0.827 | –
O=C1N(Cc2ccccc2F)CCCC1(O)CN1CCOCC1 (stereo unspecified) | – | 0.96
CN(Cc1nc(N2CCOCC2)c2ccc(Cl)cc2n1)Cc1ccccc1C(F)(F)F | 0.602 | –
